{"source": "patent US20050090454A1", "about": "“Combination of dehydroepiandrosterone or dehydroepiandrosterone-sulfate with an antihistamine for treatment of asthma or chronic obstructive pulmonary disease” (priority 2003, published 2005)", "experiment": "Emitted dose studies with dry powder inhalers"}
{"smiles": "C[C@]12CC[C@H](OS(=O)(=O)[O-])CC1=CC[C@@H]1[C@@H]2CC[C@]2(C)C(=O)CC[C@@H]12.[Na+]", "note": "[Anhydrous DHEA-S, sodium dehydroepiandrostenone sulfate]", "values": [{"measurement": "Emitted Dose (%)", "setting": "Diskhaler (2nd study), 87.8 L/min, three runs and Average", "result": 59.1, "unit": "%"}, {"measurement": "Emitted Dose (%)", "setting": "Diskhaler, 30 L/min, three runs and average", "result": 58.6, "unit": "%"}, {"measurement": "Emitted Dose (%)", "setting": "Diskhaler, 87.8 L/min, three runs and Average", "result": 51.3, "unit": "%"}, {"measurement": "Emitted Dose (%)", "setting": "IDL Multi-Dose (2nd study), 87.8 L/min, three runs and Average", "result": 84.8, "unit": "%"}, {"measurement": "Emitted Dose (%)", "setting": "IDL Multi-Dose, 30 L/min, three runs and Average", "result": 85.4, "unit": "%"}, {"measurement": "Emitted Dose (%)", "setting": "IDL Multi-Dose, 87.8 L/min, three runs and Average", "result": 72.6, "unit": "%"}, {"measurement": "Emitted Dose (%)", "setting": "Rotahaler, 60 L/min, three runs and Average", "result": 57.3, "unit": "%"}, {"measurement": "Emitted Dose (%)", "setting": "Rotahaler, 87.8 L/min, micronized drug, three runs and Average", "result": 69.7, "unit": "%"}]}
